Measured values: PubChem BioAssay AID743255 (National Center for Advancing Translational Sciences (NCATS), 2014)
The campaign covered roughly 390,000 compounds. About 910 (0.23%) were called active. Inconclusive results, whose numbers are uncertain, are shown with a selection of clear calls. Calls follow the shape of the dose curve; as a rule, active = well fitted inhibition curve with a large enough effect; inconclusive = small, poorly fitted or top-dose-only effect; inactive = no such curve, though single readings can be large or run the other way. Where the call is inconclusive, the potency comes from a doubtful curve fit.

By UniProt entry, the sequences of proteins in these tests, tags left out. Where a name states a change or a piece, a line headed by the entry shows the natural chain unless it says otherwise.
UniProt O94782: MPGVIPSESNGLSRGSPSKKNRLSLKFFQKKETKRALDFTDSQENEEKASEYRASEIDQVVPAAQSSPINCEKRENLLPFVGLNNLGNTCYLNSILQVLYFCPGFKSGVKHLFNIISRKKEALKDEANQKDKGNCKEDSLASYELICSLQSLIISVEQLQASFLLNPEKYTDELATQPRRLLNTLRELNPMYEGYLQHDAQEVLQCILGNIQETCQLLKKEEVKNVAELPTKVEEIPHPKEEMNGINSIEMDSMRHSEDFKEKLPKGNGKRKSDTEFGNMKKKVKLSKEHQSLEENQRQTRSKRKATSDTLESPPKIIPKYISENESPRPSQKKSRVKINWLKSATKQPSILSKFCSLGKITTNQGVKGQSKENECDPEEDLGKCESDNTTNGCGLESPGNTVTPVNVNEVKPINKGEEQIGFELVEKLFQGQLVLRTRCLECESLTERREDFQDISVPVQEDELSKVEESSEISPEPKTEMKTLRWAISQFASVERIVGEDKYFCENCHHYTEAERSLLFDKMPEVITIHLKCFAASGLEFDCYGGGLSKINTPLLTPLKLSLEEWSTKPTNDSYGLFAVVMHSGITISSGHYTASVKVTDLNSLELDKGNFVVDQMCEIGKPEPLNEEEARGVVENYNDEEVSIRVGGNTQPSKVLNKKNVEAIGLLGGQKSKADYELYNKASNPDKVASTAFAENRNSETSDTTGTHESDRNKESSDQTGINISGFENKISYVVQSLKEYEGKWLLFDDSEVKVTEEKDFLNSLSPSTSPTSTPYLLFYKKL

The compounds below were run against Ubiquitin carboxyl-terminal hydrolase 1 (Homo sapiens) (UniProt O94782) (assay: Inhibitors of USP1/UAF1: Primary Screen). Conditions: recombinant USP1/UAF1, Ub-Rhodamine cleavage fluorescence; activity change, negative = inhibition: at 57.1 µM (top of the series).
Summary of the method: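 In this screen, compounds sit with the deubiquitinase complex (1nM) for 15 min at room temperature before Ub-Rho is added at 150nM final. Fluorescence rise is then followed for 6 reads every 60 seconds.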
% is scaled to controls: 0 for no effect and ±100 for the full control effect; potency is read from the fitted curve at half-maximal effect.
Also: nearly all actives have a fitted effect of over 60% in size.

Potency, active:
N=C1/C(=C\c2coc3ccccc3c2=O)C(=O)N=C2SC=CN12 28.2 µM

Potency, inactive:
COc1cccc(Cn2c(NCc3cccnc3)nc3c2c(=O)n(C)c(=O)n3C)c1
O=[N+]([O-])c1ccc(O)c(Nc2ncnc3ccc(Br)cc23)c1
COc1cc(OC)c(NC(=O)CN2CCCN(Cc3ccccc3C)S2(=O)=O)cc1Cl
CCS(=O)(=O)c1ccc(O)c(NC(=O)Nc2ccc(C(C)(C)C)cc2)c1
Cc1ccc(C(=O)CSc2nnc(-c3ccco3)n2C)cc1
COc1cc(OC)c(NC(=O)CCc2c(C)nc3ncnn3c2C)cc1Cl
O=C(CSc1ccccc1)N1CCCC(Nc2ccccc2)C1 (centres undefined)
O=C(COc1ccc(Br)cc1)NC(=S)Nc1ccccc1N1CCOCC1
Cc1ccc(CCNS(=O)(=O)c2ccc3c(c2)CC(C)N3C(=O)C2CCC2)cc1 (centres undefined)

Potency, inconclusive:
Cc1cccc(CNC(=O)c2ccc3nc(Cc4ccccc4)oc3c2)c1 0.708 µM [inhibitor, full curve, poor fit]
Cc1ccccc1NC(=O)c1ccc(S(=O)(=O)N(C)C)cc1 50.1 µM [inhibitor, partial curve, poor fit]
CCC1=C(OC(=O)N(CC)CC)N2C(=O)OC(=NCCc3c[nH]c4ccccc34)[C@]2(Cc2ccccc2)[C@H]2C1=CC[C@H]1C(=O)N(CC)C(=O)[C@H]12 50.1 µM [inhibitor, partial curve, poor fit]
O=C(CC(=O)Nc1cccnc1)Nc1cccnc1 31.6 µM [inhibitor, single point]
C[C@H]1CCCCO[C@H](CN(C)Cc2ccncc2)[C@@H](C)CN([C@@H](C)CO)C(=O)c2cc(NS(=O)(=O)c3ccccc3)ccc2O1 35.5 µM [inhibitor, partial curve]
C=CCn1c(=O)[nH]c2nc3cc(N=CN(C)C)c(C)cc3nc2c1=O 31.6 µM [inhibitor, partial curve]
Cc1ccc(CNC(=O)c2ccc(Cn3c(=O)c4ccccc4n(CC(=O)Nc4ccc(C)cc4)c3=O)cc2)cc1 0.02 µM [inhibitor, full curve, poor fit]
COc1ccc(/C=C/C(=O)OCC(=O)N2c3ccccc3CC2C)c(OC)c1 (centres undefined) 0.112 µM [inhibitor, full curve, poor fit]
CC(=O)c1ccc(N2CCN(C(=O)CCC(=O)Nc3ccc4nc(N5CCN(C)CC5)cc(C)c4c3)CC2)cc1 31.6 µM [inhibitor, single point]
NS(=O)(=O)c1cccc(NC(=O)CSc2nnc(C3CC3)n2-c2ccccc2)c1 15.8 µM [inhibitor, partial curve]
Nc1nonc1-n1nnc(C(=O)N/N=C/c2ccccc2F)c1CN1CCOCC1 0.708 µM [inhibitor, full curve, poor fit]
C=CCn1c(N)c(C(=O)OC(C)(C)C)c2nc3ccccc3nc21 39.8 µM [inhibitor, partial curve, poor fit]
CCOc1ccc(NC(=O)c2sc3nc4c(c(-c5ccc(OC)cc5)c3c2N)C(=O)CC(C)(C)C4)cc1 7.94 µM [inhibitor, partial curve, poor fit]
COC(=O)[C@@H](c1ccccc1)N(C)S(=O)(=O)c1cccc(S(=O)(=O)N(C)[C@@H](C(=O)OC)c2ccccc2)c1 0.282 µM [inhibitor, full curve]
N#Cc1ccc(C(=O)N2CCN(c3ncccn3)CC2)cc1 1.41 µM [inhibitor, partial curve, poor fit]
COCCCNC(=O)c1c(N)n(-c2ccccc2)c2nc3ccccc3nc12 31.6 µM [inhibitor, partial curve]
CCCCCCCNC(=O)C1(CC2CC(c3ccc(Cl)cc3)=NO2)CCN(C(=O)c2ccccc2)CC1 (centres undefined) 35.5 µM [inhibitor, partial curve]
Cc1ccc(NC(=O)c2ncn[nH]2)cc1 0.282 µM [inhibitor, partial curve, poor fit]
COc1ccc(S(=O)(=O)Cc2ccc(C(=O)N3CCN(Cc4ccccc4)CC3)o2)cc1 0.708 µM [inhibitor, full curve]
O=C(COCc1cc(-c2cccs2)on1)N1CCN(c2cccc(Cl)c2)CC1 100 µM [inhibitor, partial curve, poor fit]
COc1cccc2sc3cc(NCc4ccc(C)o4)ccc3c(=O)c12 44.7 µM [inhibitor, single point]
COc1ccccc1CN1C(=O)CN(C2CCCCCC2)C(=O)C1c1ccc(F)cc1 (centres undefined) 4.47 µM [inhibitor, single point]
C#CCOCCOCCOCCNc1nc(N2CCOCC2)nc(N2CCN(C(=O)Cn3cc(CCCCN)nn3)CC2)n1 79.4 µM [inhibitor, partial curve, poor fit]
CC1CCCC(n2cnc3cc(C(=O)O)ccc32)C1C (centres undefined) 44.7 µM [inhibitor, partial curve]
Cc1c(NS(=O)(=O)c2cc(C(=O)OCC(=O)c3ccccc3F)ccc2Cl)c(=O)n(-c2ccccc2)n1C 7.94 µM [inhibitor, partial curve, poor fit]
CSc1ccc(Cl)c(C(=O)OCC(=O)N2CCNC2=O)c1 35.5 µM [inhibitor, partial curve, poor fit]
COc1ccc(C(CC(=O)O)NC(=O)c2cc3cc(Br)ccc3oc2=O)cc1OC (centres undefined) 7.94 µM [inhibitor, partial curve, poor fit]

Fetched by compound from the list above, 3 records:
Potency, inconclusive:
O=C(COCc1cc(-c2cccs2)on1)N1CCN(c2cccc(Cl)c2)CC1 100 µM [inhibitor, partial curve, poor fit]
Nc1nonc1-n1nnc(C(=O)N/N=C/c2ccccc2F)c1CN1CCOCC1 0.708 µM [inhibitor, full curve, poor fit]
CCOc1ccc(NC(=O)c2sc3nc4c(c(-c5ccc(OC)cc5)c3c2N)C(=O)CC(C)(C)C4)cc1 7.94 µM [inhibitor, partial curve, poor fit]

Following part:

Activity change, negative = inhibition, inconclusive:
COc1ccccc1Nc1nc(NCCCN(C)C)nc(N)c1[N+](=O)[O-] -6.88% [inhibitor]
CSc1nnc(-c2ccc([N+](=O)[O-])cc2)o1 -19.2% [inhibitor]
